This is an account of results in patent publication US20130323248A1.

The chains behind the UniProt entries cited, without tags or fusion partners. Where a name states a change or a piece, a line headed by the entry shows the natural chain unless it says otherwise. Residues count along the entry.
UniProt Q9NR61: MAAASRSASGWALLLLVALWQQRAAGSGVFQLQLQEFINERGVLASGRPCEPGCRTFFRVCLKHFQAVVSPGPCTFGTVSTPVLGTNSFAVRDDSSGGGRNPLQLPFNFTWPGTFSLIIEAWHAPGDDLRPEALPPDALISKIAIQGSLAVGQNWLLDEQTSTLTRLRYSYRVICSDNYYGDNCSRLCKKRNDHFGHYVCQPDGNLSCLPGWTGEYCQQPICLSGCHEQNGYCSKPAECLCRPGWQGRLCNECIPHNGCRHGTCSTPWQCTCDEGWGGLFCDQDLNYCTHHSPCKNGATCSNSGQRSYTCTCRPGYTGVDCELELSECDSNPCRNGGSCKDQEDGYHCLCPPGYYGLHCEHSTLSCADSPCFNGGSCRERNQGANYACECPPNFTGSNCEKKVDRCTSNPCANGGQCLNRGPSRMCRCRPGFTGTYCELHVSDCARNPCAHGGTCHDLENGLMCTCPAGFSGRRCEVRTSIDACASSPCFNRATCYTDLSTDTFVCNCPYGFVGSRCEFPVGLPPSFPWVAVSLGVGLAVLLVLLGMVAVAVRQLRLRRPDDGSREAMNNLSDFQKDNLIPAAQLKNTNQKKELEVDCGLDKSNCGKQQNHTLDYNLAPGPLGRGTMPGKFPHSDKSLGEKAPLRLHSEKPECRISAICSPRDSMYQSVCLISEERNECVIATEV
human DLL-4 expressed on the surface of CHO-K1 cells (CHO-DLL-4 cells): residues 27-685 of Q9NR61
recombinant human DLL4 (rhDLL4): residues 27-524 of Q9NR61

These are yes or no findings as the source states them, for the method shown. Some binding calls cover weakened binding; strength is not graded here.

In assay [1] the target is recombinant human DLL4 (rhDLL4) (human) (UniProt Q9NR61). The assay can be described thus: Octet; rhDLL4 captured by an immobilized antibody, second antibody run. On the technique in general: Biolayer interferometry detects binding as a change in optical thickness at a sensor tip.
The target is the same in assay [2]. The assay can be described thus: Octet; epitope mapping in relation to OMP21M18.
Assay [3] deals with human DLL-4 expressed on the surface of CHO-K1 cells (CHO-DLL-4 cells) (human) (UniProt Q9NR61). The assay can be described thus: flow cytometry (HTFC) on CHO-K1 cells stably expressing DLL-4. Background: Flow cytometry measures light scatter and fluorescence of single cells or particles in a stream.

B1: anti-DLL-4 antibody C5 (antibody, V domains shown)
VH: QVQLQQSGPGLVKPSQTLSLTCAISGDSVSSNSAAWNWIRQSPSRGFEWLGRTEYRSKWYNDYAVSVESRITINPDTSKNHFSLQLNSVTPEDTAVYYCARDGNTFSFDYWGQGTLVTVSS
VL: QSVVTQPPSVSAAPGQKVTISCSGGSSNIGNNYVSWYQQIPGTAPKLLIYDNNNRPSGIPDRFSGSKSGASATLGISGLQTGDEANYYCGAWDSTLSGYVFGTGTKLTVL
As to B1, the binding result in assay [1] and in assay [2] was “binds” in each case.

B2: anti-DLL-4 antibody C10 (antibody, V domains shown)
VH: QVQLVESGAEVKKPGASVKVSCKASGYTFTSYYMHWVRQAPQGLEWMGIINPSGGSTSYAQKFQGRVTMTRDTSTNTVYMELSSLRSEDTAVYYCARDVWGGYFDYWGQGTLVTVSS
VL: QSVLTQPASVSGSPGQSITISCTGTSSDVGGYNYVSWYQQHPGKAPKLMIYDVTNRPSGVSNRFSGSKSGNTASLTISGLQAEDEADYYCSSYTSSSTVIFGGGTKLTVL
B2: the binding entry in assay [3] was “binds”.
